In article PMC8881610:
Results are given in words; binding and its absence hold for the method and conditions named. Some results given as binding are weak or reduced against the parent protein; the word gives no strength.

Sequences of proteins named here, by UniProt entry; tags and fusion partners are left off. Residues count along the entry.
UniProt P43220, residues 24-463: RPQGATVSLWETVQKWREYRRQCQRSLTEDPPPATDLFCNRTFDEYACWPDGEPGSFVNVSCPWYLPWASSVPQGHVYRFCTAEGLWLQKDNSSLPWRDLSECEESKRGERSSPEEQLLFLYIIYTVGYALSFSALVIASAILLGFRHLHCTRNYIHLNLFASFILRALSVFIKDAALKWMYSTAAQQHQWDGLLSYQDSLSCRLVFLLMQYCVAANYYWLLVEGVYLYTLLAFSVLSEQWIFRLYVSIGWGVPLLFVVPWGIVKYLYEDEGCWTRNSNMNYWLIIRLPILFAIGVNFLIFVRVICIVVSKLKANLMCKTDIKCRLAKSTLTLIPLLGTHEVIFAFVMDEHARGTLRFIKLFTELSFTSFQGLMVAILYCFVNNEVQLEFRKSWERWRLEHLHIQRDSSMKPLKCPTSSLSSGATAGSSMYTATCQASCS
UniProt P47871, residues 27-432: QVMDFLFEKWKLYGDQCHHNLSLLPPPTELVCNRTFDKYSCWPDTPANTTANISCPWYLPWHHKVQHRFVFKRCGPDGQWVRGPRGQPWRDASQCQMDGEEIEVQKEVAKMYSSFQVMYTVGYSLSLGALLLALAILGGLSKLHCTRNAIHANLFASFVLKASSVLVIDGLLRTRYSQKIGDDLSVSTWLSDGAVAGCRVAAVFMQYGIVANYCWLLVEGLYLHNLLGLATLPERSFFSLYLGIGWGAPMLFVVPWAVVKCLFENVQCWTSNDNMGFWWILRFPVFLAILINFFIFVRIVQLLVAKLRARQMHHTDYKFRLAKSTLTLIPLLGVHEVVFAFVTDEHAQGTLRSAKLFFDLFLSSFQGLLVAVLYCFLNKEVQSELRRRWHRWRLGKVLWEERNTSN

What was measured:
[1] = molecular target: HA-GLP-1R(24-463)-LgBiT-2MBP (human) (UniProt P43220); experiment: radioligand binding; only the binder purified
[2] = molecular target: HA-GCGR(27-432)-HPC4 (human) (UniProt P47871); experiment: radioligand binding; only the binder purified

In the case of HAQGTFTSDKSKYLDERAAQDFVQWLLDGGPSSGAPPPS [peptide 20], the binding [1] is reported as “binds” and the binding [2] is reported as “binds”.
